Test results as given in publication PMC5435946.
No constants are given. Whether binding was seen depends on the method and setting. Some binding calls cover weakened binding; strength is not graded here.

T1: Thp1 (S. cerevisiae) (UniProt Q08231)
T1 sequence: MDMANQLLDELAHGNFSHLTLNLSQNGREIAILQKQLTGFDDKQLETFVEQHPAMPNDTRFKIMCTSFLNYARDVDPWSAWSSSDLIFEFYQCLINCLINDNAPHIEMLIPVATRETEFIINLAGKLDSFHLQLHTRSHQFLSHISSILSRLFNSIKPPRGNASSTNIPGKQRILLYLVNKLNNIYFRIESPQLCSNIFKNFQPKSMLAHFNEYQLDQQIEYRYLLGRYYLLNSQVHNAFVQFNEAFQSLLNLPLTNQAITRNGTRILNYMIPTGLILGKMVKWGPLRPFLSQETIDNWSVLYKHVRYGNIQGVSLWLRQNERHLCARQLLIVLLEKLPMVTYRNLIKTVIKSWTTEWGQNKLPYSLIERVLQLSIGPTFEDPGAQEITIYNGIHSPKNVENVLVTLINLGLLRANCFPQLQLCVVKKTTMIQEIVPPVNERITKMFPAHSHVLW

T2: Sac3 (residues 60–550) (S. cerevisiae) (UniProt P46674)
T2 sequence: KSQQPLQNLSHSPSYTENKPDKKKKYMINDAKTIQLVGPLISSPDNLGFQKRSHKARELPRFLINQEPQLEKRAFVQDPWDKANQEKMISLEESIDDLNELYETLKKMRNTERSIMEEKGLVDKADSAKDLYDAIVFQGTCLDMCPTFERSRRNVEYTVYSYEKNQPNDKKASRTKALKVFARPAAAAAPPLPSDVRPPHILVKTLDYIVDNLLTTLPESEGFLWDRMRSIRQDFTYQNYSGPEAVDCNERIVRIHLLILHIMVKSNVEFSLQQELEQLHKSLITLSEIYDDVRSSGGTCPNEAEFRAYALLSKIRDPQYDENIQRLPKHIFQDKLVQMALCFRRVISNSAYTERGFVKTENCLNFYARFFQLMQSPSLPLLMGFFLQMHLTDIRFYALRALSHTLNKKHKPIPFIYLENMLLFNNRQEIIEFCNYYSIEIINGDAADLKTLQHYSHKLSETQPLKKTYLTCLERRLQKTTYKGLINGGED


How the values were obtained:
Thp1 (S. cerevisiae) = target: T1, Thp1 (S. cerevisiae); experiment: crystal structure; co-expressed and co-purified Sac3^60-550:Thp1:Sem1 complex at 16.5 mg/ml; sitting drop vapour diffusion, 20% PEG 3350, 0.2 M Mg formate, 100 mM MES 6.5; 2.3 Å, molecular replacement with PDB 3T5V; both purified
[1] = target: T2, Sac3 (residues 60–550) (S. cerevisiae); experiment: as above

Row | binding (Thp1 (S. cerevisiae)) | binding [1] | Binder
1 | binds |  | Sem1 (protein, UniProt O94742 1-89) MSTDVAAAQAQSKIDLTKKKNEEINKKSLEEDDEFEDFPIDTWANGETIKSNAVTQTNIWEENWDDVEVDDDFTNELKAELDRYKRENQ
2 |  | binds | Thp1 (protein, UniProt Q08231 1-455) MDMANQLLDELAHGNFSHLTLNLSQNGREIAILQKQLTGFDDKQLETFVEQHPAMPNDTRFKIMCTSFLNYARDVDPWSAWSSSDLIFEFYQCLINCLINDNAPHIEMLIPVATRETEFIINLAGKLDSFHLQLHTRSHQFLSHISSILSRLFNSIKPPRGNASSTNIPGKQRILLYLVNKLNNIYFRIESPQLCSNIFKNFQPKSMLAHFNEYQLDQQIEYRYLLGRYYLLNSQVHNAFVQFNEAFQSLLNLPLTNQAITRNGTRILNYMIPTGLILGKMVKWGPLRPFLSQETIDNWSVLYKHVRYGNIQGVSLWLRQNERHLCARQLLIVLLEKLPMVTYRNLIKTVIKSWTTEWGQNKLPYSLIERVLQLSIGPTFEDPGAQEITIYNGIHSPKNVENVLVTLINLGLLRANCFPQLQLCVVKKTTMIQEIVPPVNERITKMFPAHSHVLW
